In all, about 300,000 compounds went through this assay and about 5,400 (1.8%) were called active. The shares of active, inactive and inconclusive entries below differ from those in the screen. The call rests on the fitted dose curve; tested in HEK293 cells. Potencies beside an inconclusive call are fits to weak or partial responses and may not hold up.
Assay: qHTS for inhibitors of binding or entry into cells for Marburg Virus
Conditions: Marburg virus pseudotyped entry inhibition, cell reporter; activity change, negative = inhibition: at 37.8 µM (top of the series) unless noted
On the % scale 0 is the no-effect control and ±100 the full control effect; potency means the concentration at half of the fitted maximal effect.

SMILES | Potency | activity change, negative = inhibition
CC(C)(C)C(=O)[C@H]1[C@H](c2ccccc2)[C@@]2(N=C(c3ccccc3)OC2=O)C2c3ccccc3C=NN21 (stereo partly drawn) | inconclusive: 8.2 µM [inhibitor, partial curve, poor fit] | –
O=C(CN1C(=O)NC2(CCCC2)C1=O)Nc1nc(-c2ccc(F)cc2)cs1 | inconclusive: 18.3 µM [inhibitor, single point] | –
O=C(CCC(=O)N1CCN(S(=O)(=O)c2ccc(Cl)cc2)CC1)NC1CCCc2ccccc21 (stereo not drawn) | inconclusive: 35.5 µM [inhibitor, single point] | –
COc1ccccc1-c1noc(CCC(=O)Nc2ccccc2Cl)n1 | – | inactive: -0.184%
COc1ccc(OC)c(S(=O)(=O)N2Cc3ccccc3CC2C(=O)Nc2ccc(C(C)=O)cc2)c1 (stereo not drawn) | inconclusive: 12.6 µM [inhibitor, partial curve, poor fit] | –
Cc1ccccc1Nc1c(-c2ccsc2)nc2c(C)cccn12 | – | inactive: 6.09% [at 46.1 µM]
CCN(CC(=O)NCc1ccc(F)cc1)CC(=O)NC1CCCC1 | – | inactive: 13.1% [at 46.1 µM]
Cc1nn(C)c(C)c1/C=C(/C(=O)C(C)(C)C)n1cncn1 | inconclusive: 20 µM [inhibitor, partial curve, poor fit] | –
Cc1cnc(NC(=O)c2ccc(F)c(S(=O)(=O)N3CCOCC3)c2)s1 | – | inactive: -3.61%
Nc1cc(C(=O)c2ccccc2)ccc1N1CCOCC1 | – | inactive: -10.5%
O=[N+]([O-])c1cccc(S(=O)(=O)/N=C(/Nc2ccccc2)c2ccccc2)c1 | inconclusive: 1.41 µM [inhibitor, single point] | –
Cc1cc(N2CCOCC2)nc2ccc(Cl)cc12 | inconclusive: 5.01 µM [activator, partial curve] | –
CCCCn1c(N)c(N(CC(C)C)C(=O)c2ccc(S(=O)(=O)N3CCCCC3)cc2)c(=O)[nH]c1=O | – | inactive: -12.7%
CCN(Cc1ccc(OC)cc1)c1ccc(-c2nc(-c3ccncc3)no2)cc1[N+](=O)[O-] | – | inactive: 1.97% [at 46.1 µM]
Clc1ccccc1CN1CCN(c2ccccc2)CC1 | – | inactive: -21.7%
COC(=O)C(Cc1c[nH]c2ccccc12)NC(=O)C1CC1 (stereo not drawn) | inconclusive: 3.16 µM [activator, single point] | –
COC(=O)C(C)N1C(=O)S/C(=C/c2cc(C)n(-c3ccccn3)c2C)C1=O (stereo not drawn) | – | inactive: -0.975%
CCc1ccc(OCC2c3cc(OC)c(OC)cc3CCN2C(=S)NC)cc1 (stereo not drawn) | inconclusive: 10 µM [inhibitor, partial curve, poor fit] | –
COc1cccc(/C=C2\Sc3ccc(C(=O)NCc4cccnc4)cc3N(C)C2=O)c1 | inconclusive: 10 µM [inhibitor, partial curve, poor fit] | –
CCOc1ccc(-c2cc3c(=O)n(Cc4nc(-c5cccc(OC)c5OC)oc4C)ccn3n2)cc1Cl | – | inactive: 1.9% [at 46.1 µM]
CCc1ccc2[nH]c3nc(SCC(=O)NCC4CCCO4)nnc3c2c1 (stereo not drawn) | inconclusive: 1.26 µM [activator, partial curve, poor fit] | –
CCOc1ccc(N2C(=O)CC(Sc3nc(O)c(CC)c(=O)[nH]3)C2=O)cc1 (stereo not drawn) | inconclusive: 6.31 µM [activator, single point] | –
Cc1ccc(C(=O)Nc2ccc(N3CCCC3)cc2)c(C)c1 | inconclusive: 35.5 µM [inhibitor, single point] | –

Part of the list above, in markdown:

| SMILES | Potency | activity change, negative = inhibition |
| --- | --- | --- |
| Cc1ccccc1Nc1c(-c2ccsc2)nc2c(C)cccn12 | – | inactive: 6.09% [at 46.1 µM] |
| CCN(CC(=O)NCc1ccc(F)cc1)CC(=O)NC1CCCC1 | – | inactive: 13.1% [at 46.1 µM] |
| Cc1cnc(NC(=O)c2ccc(F)c(S(=O)(=O)N3CCOCC3)c2)s1 | – | inactive: -3.61% |

Further entries.

SMILES | Potency | activity change, negative = inhibition
CN(Cc1cnn(-c2ccc(F)cc2)c1)Cc1nc(Cc2ccccc2)no1 | inconclusive: 35.5 µM [inhibitor, partial curve, poor fit] | –
O=C(Nc1ccc(-n2ccc(C(F)(F)F)n2)cc1)c1cccs1 | – | inactive: 6.59% [at 46.1 µM]
COC(=O)C1=C(C)N(CCc2c[nH]c3ccccc23)C(=O)/C1=C\N(C)C | – | inactive: -5.37%
O=C(CCc1ccccc1)NCc1ccc(F)cc1 | – | inactive: -1.2% [at 46.1 µM]
CCCN1CCc2cccc3c2[C@H]1Cc1ccc(O)c(O)c1-3 | inconclusive: 35.5 µM [inhibitor, partial curve, poor fit] | –
NC1=NC(c2ccccc2)CC(=O)N1 (stereo not drawn) | – | inactive: 2.27% [at 46.1 µM]
O=C(Nc1ccccc1-c1ccccc1)c1cccs1 | inconclusive: 5.62 µM [activator, single point] | –
Cc1cccc(C)c1-n1c(C)cc(/C=C2\NC(=O)NC2=O)c1C | inconclusive: 0.231 µM [inhibitor, single point] | –
O=C(c1ccccc1)N1CCN(c2ccc([N+](=O)[O-])c(NCc3ccco3)c2)CC1 | inconclusive: 11.2 µM [inhibitor, partial curve] | –
CC(C)C(OC(=O)C1=Cc2ccccc2OC1)C(=O)NC1CCCC1 (stereo not drawn) | inconclusive: 14.1 µM [inhibitor, single point] | –
Cc1ccccc1OCc1nnc(SCC(=O)Nc2ccc3nc(SCC(=O)Nc4ccccc4)sc3c2)n1C | inconclusive: 23.1 µM [inhibitor, partial curve, poor fit] | –
COC(=O)/C(Cc1cc(Br)c(OC)c(Br)c1O)=N/O | – | inactive: -16% [at 14.2 µM]
C[C@H]1CC[C@H]2C(=O)O[C@H](CO)CN2[C@@H]1c1ccc(Br)cc1 | – | inactive: -20.5% [at 14.2 µM]
O=C1/C(=C\c2ccc3ccccc3c2)CCCc2ccccc21 | inconclusive: 35.5 µM [inhibitor, single point] | –
Nc1ccc(Sc2cc(Cl)nc(N)n2)cc1 | – | inactive: 1.47%
O=C(O)c1nn(-c2ccccc2)nc1-c1nn(-c2ccccc2)nc1C(=O)O | – | inactive: -9.75%
Cc1ccc(C(=O)c2ccccc2C(=O)OCC(=O)NCCc2ccc(Cl)cc2Cl)cc1 | inconclusive: 0.562 µM [inhibitor, full curve, poor fit] | –
Cc1ccc(-c2nnn(CC(=O)N(Cc3ccco3)C(C(=O)NC(C)(C)C)c3ccc(C)o3)n2)o1 (stereo not drawn) | inconclusive: 10 µM [inhibitor, partial curve, poor fit] | –
CC(C)n1c(=S)[nH]c2c1c(=O)[nH]c(=O)n2C | inconclusive: 12.6 µM [activator, single point] | –
CCCCC1(C)NC(=O)c2c(C)sc(C(=O)OCC)c2N1 (stereo not drawn) | inconclusive: 1.12 µM [activator, full curve, poor fit] | –
O=C1CC(N2CCC(n3c(=O)[nH]c4ccccc43)CC2)C(=O)N1c1ccc(F)cc1 (stereo not drawn) | inconclusive: 1.26 µM [activator, single point] | –
COC(=O)C(Cc1cnc(Cl)s1)(C(=O)OC)c1ccc([N+](=O)[O-])cc1 | – | inactive: -23.3% [at 46.1 µM]
COc1ccccc1C(=O)NC(=O)COC(=O)c1ccc([N+](=O)[O-])cc1Cl | inconclusive: 5.62 µM [inhibitor, single point] | –

SMILES | Potency | activity change, negative = inhibition
COC(=O)c1ccc(NC(=O)c2nc(S(=O)(=O)Cc3cccc(C)c3)ncc2Cl)cc1 | inconclusive: 11.2 µM [inhibitor, partial curve] | –
O=C(OCC(=O)N1CCOCC1)c1cccc(F)c1 | – | inactive: -0.472% [at 46.1 µM]
COc1ccc(NS(=O)(=O)c2ccc(C)c(C(=O)OC(C)C(=O)N3CCOCC3)c2)cc1 (stereo not drawn) | inconclusive: 15.8 µM [inhibitor, partial curve, poor fit] | –
Cc1ccc(N(C(=O)c2ccc(CN3CCOCC3)o2)C(C(=O)NCCC(C)C)c2cccs2)c(C)c1 (stereo not drawn) | inconclusive: 29.1 µM [inhibitor, single point] | –
CC(C)c1ccc(C(=O)Nc2cccc3cccnc23)cc1 | – | inactive: 32.2% [at 46.1 µM]
C/C(=N/NS(=O)(=O)c1ccc(C)cc1)c1c[nH]c2ccccc12 | – | inactive: -28.4% [at 46.1 µM]
CC(=O)Nc1ccc(NC(=O)C2CCCCN2S(=O)(=O)c2ccc(C(C)(C)C)cc2)cc1 (stereo not drawn) | inconclusive: 25.1 µM [inhibitor, partial curve, poor fit] | –
COc1ccccc1-c1c(C)nn2c(N3CCC(C)CC3)cc(C)nc12 | inconclusive: 11.2 µM [inhibitor, partial curve, poor fit] | –
CCOC(=O)c1c2n(c3ccc(O)cc13)CCCCC2 | inconclusive: 8.91 µM [inhibitor, partial curve, poor fit] | –
COc1ccccc1OCCCn1cc(C(C)=O)c2ccccc21 | inconclusive: 35.5 µM [inhibitor, partial curve, poor fit] | –
COc1ccc(-c2noc(CN(C(=O)c3ccoc3C)C(C)C)n2)cc1 | inconclusive: 10 µM [inhibitor, partial curve, poor fit] | –
CCOc1ccccc1NC(=O)CSc1nnnn1-c1ccccc1 | inconclusive: 5.62 µM [inhibitor, single point] | –
O=C(Nc1ccc(CN2CCOCC2)cc1)c1cccs1 | inconclusive: 2.91 µM [activator, single point] | –
CCNC(=S)N1CCN(c2ccccn2)CC1 | – | inactive: -5.46% [at 46.1 µM]
CC(OC(=O)c1cc(=O)[nH]c2ccccc12)C(=O)Nc1ccc(Cl)cn1 (stereo not drawn) | inconclusive: 10 µM [activator, single point] | –
O=[N+]([O-])c1cc(C=NN2CCCCCC2)ccc1Cl | inconclusive: 3.98 µM [activator, single point] | –
CCn1cc(C(=O)NC(=S)Nc2sc3c(c2C(=O)OC)CCCCCC3)cn1 | inconclusive: 3.16 µM [inhibitor, single point] | –
CC(=O)N(CCCc1ccc(C(C)(C)C)cc1)CCCN(C)C | inconclusive: 23.1 µM [inhibitor, partial curve, poor fit] | –
COc1ccc(Cl)c(N2CCN(CCCNC(=O)Nc3ccc(C)cc3)CC2)c1 | inconclusive: 35.5 µM [inhibitor, single point] | –
Cc1ccc2c(Cl)c(C(=O)Nc3ccc4c(c3)OCO4)sc2c1 | – | inactive: -10.6%
Cn1c(C(=O)NCc2ccc3c(c2)OCO3)cc2sccc21 | inconclusive: 32.6 µM [inhibitor, single point] | –
CC(=O)Oc1ccc2nc(/C=C/c3ccccc3)oc(=O)c2c1 | inconclusive: 8.91 µM [inhibitor, partial curve, poor fit] | –

— PubChem BioAssay AID540276 (National Center for Advancing Translational Sciences (NCATS), 2011)
